Source: the supplement of paper PMC7238544
Counter-ions that a name gives are not always drawn. ± gives the standard deviation of the averaged measurements. This is one part of the list. The data scatter; read single values as rough.

Experiments:
hAMSC donor 1 [1] = assay: Hoechst total cell count ratio vs vehicle control; higher = more cells (less toxicity)
hAMSC donor 2 [2] = assay: as above
hAMSC donor 1 [3] = assay: transgenic luciferase activity (RLU/mg protein) fold change vs vehicle control (ratio); higher = more transgene expression
hAMSC donor 2 [4] = assay: as above
hAMSC donor 1 [5] = assay: transfection efficiency (EGFP+ cells / Hoechst count) fold change vs vehicle control (ratio); hAMSC are human adipose-derived mesenchymal stem cells given an EGFP-luciferase plasmid by lipofection; higher = enhanced transfection
hAMSC donor 2 [6] = assay: as above
[7] = priming compound concentration 0.2 µM
[8] = priming compound concentration 1.7 µM
[9] = priming compound concentration 13 µM

Compound	Hoechst total cell count ratio (hAMSC donor 1 [1]; [7])	Hoechst total cell count ratio (hAMSC donor 1 [1]; [8])	Hoechst total cell count ratio (hAMSC donor 1 [1]; [9])	Hoechst total cell count ratio (hAMSC donor 2 [2]; [7])	Hoechst total cell count ratio (hAMSC donor 2 [2]; [8])	Hoechst total cell count ratio (hAMSC donor 2 [2]; [9])	transgenic luciferase activity (hAMSC donor 1 [3]; [8])	transgenic luciferase activity (hAMSC donor 2 [4]; [7])	transgenic luciferase activity (hAMSC donor 2 [4]; [8])	transgenic luciferase activity (hAMSC donor 2 [4]; [9])	transfection efficiency (hAMSC donor 1 [5]; [7])	transfection efficiency (hAMSC donor 1 [5]; [8])	transfection efficiency (hAMSC donor 1 [5]; [9])	transfection efficiency (hAMSC donor 2 [6]; [7])	transfection efficiency (hAMSC donor 2 [6]; [8])	transfection efficiency (hAMSC donor 2 [6]; [9])	transgenic luciferase activity (hAMSC donor 1 [3]; [9])
CC[C@]1(O)C[C@H]2CN(CCc3c([nH]c4ccccc34)[C@@](C(=O)OC)(c3cc4c(cc3OC)N(C=O)[C@H]3[C@@](O)(C(=O)OC)[C@H](OC(C)=O)[C@]5(CC)C=CCN6CC[C@]43[C@@H]65)C2)C1 [Vincristine sulfate]	0.488 ± 0.066	0.537 ± 0.078	0.541 ± 0.036	0.732 ± 0.087	0.863 ± 0.14	1.84 ± 0.17	2.42 ± 0.65	0.347 ± 0.15	0.59 ± 0.12	0.422 ± 0.19	2.01 ± 0.55	0.976 ± 0.49	0.795 ± 0.33	0.877 ± 0.3	0.777 ± 0.21	0.709 ± 0.14	–
CC1COc2c(N3CCN(C)CC3)c(F)cc3c(=O)c(C(=O)O)cn1c23 (stereo unspecified) [Ofloxacin]	1.34 ± 0.077	1.79 ± 0.28	1.16 ± 0.1	1.13 ± 0.0089	1.14 ± 0.065	1.32 ± 0.19	–	0.768 ± 0.16	0.598 ± 0.066	0.755 ± 0.025	1.02 ± 0.2	0.871 ± 0.48	1.12 ± 0.38	0.961 ± 0.2	0.979 ± 0.1	0.872 ± 0.19	1.1 ± 0.24
C#C[C@]1(O)CC[C@H]2[C@@H]3CCc4cc(O)ccc4[C@H]3CC[C@@]21C [Ethynylestradiol]	1.25 ± 0.13	1.2 ± 0.18	1.07 ± 0.14	1.55 ± 0.48	1.26 ± 0.12	1.83 ± 0.35	0.946 ± 1.2	0.605 ± 0.054	0.493 ± 0.083	0.186 ± 0.067	1.2 ± 0.48	1.12 ± 0.49	0.879 ± 0.21	1.2 ± 0.3	0.86 ± 0.092	1.08 ± 0.34	–
COc1cc(C)c(/C=C/C(C)=C/C=C/C(C)=C/C(=O)O)c(C)c1C [Acitretin]	1.19 ± 0.18	1.39 ± 0.46	1.32 ± 0.28	1.03 ± 0.091	0.942 ± 0.059	0.759 ± 0.13	–	0.676 ± 0.13	0.684 ± 0.071	0.666 ± 0.2	0.862 ± 0.13	1.25 ± 0.34	0.808 ± 0.44	0.98 ± 0.076	1.05 ± 0.071	0.882 ± 0.14	0.613 ± 0.22
CN1C(C(=O)Nc2ccccn2)=C(O)c2ccccc2S1(=O)=O [Piroxicam]	1.03 ± 0.096	0.797 ± 0.088	0.635 ± 0.063	1.66 ± 0.79	1.1 ± 0.066	0.782 ± 0.25	4.06 ± 1.3	0.703 ± 0.17	0.475 ± 0.031	0.0793 ± 0.055	1.45 ± 0.18	2.27 ± 0.21	2.13 ± 0.47	1.24 ± 0.017	0.98 ± 0.05	0.787 ± 0.12	–
COc1cc2nc(N3CCN(C(=O)C4COc5ccccc5O4)CC3)nc(N)c2cc1OC (stereo unspecified) [Doxazosin]	1.15 ± 0.15	1.61 ± 0.072	1.33 ± 0.26	1.09 ± 0.1	1.21 ± 0.037	1.31 ± 0.016	–	0.566 ± 0.35	0.734 ± 0.17	0.761 ± 0.053	1.19 ± 0.26	0.912 ± 0.18	1.08 ± 0.3	0.979 ± 0.14	0.827 ± 0.069	0.749 ± 0.11	0.801 ± 0.1
NS(=O)(=O)c1cc2c(cc1Cl)NCNS2(=O)=O [Hydrochlorothiazide]	1.33 ± 0.17	1.54 ± 0.028	1.44 ± 0.21	0.967 ± 0.048	0.989 ± 0.025	0.86 ± 0.087	–	0.673 ± 0.17	0.842 ± 0.086	0.747 ± 0.21	0.811 ± 0.095	1.13 ± 0.41	0.688 ± 0.28	1.14 ± 0.06	0.95 ± 0.091	1.09 ± 0.18	0.612 ± 0.041
Cc1ccccc1C(OCCN(C)C)c1ccccc1 (stereo unspecified) [Orphenadrine hydrochloride]	1.29 ± 0.056	1.45 ± 0.11	1.32 ± 0.15	1.12 ± 0.13	1.08 ± 0.041	1.05 ± 0.19	–	0.739 ± 0.27	1.13 ± 0.33	0.847 ± 0.073	0.685 ± 0.058	1.41 ± 0.8	0.979 ± 0.11	1.1 ± 0.17	1.19 ± 0.092	0.928 ± 0.14	0.358 ± 0.11
COc1cc(CNC(=O)CCCC/C=C\C(C)C)ccc1O [Zucapsaicin]	1.13 ± 0.26	1.17 ± 0.29	0.986 ± 0.076	0.61 ± 0.087	0.887 ± 0.12	1.31 ± 0.49	2.14 ± 0.79	0.828 ± 0.067	1.48 ± 0.16	0.233 ± 0.025	0.943 ± 0.12	1.17 ± 0.41	1.17 ± 0.43	1.31 ± 0.39	1.3 ± 0.15	1.08 ± 0.12	–
CC(C)(C)NCC(O)COc1cccc2c1CC(O)C(O)C2 (stereo unspecified) [Nadolol]	1.11 ± 0.086	1.65 ± 0.021	1.39 ± 0.15	1.12 ± 0.13	1.12 ± 0.058	1.37 ± 0.23	–	0.521 ± 0.21	0.914 ± 0.12	0.587 ± 0.091	1.08 ± 0.2	1.02 ± 0.18	1.22 ± 0.23	1.05 ± 0.085	1.12 ± 0.035	0.794 ± 0.041	0.732 ± 0.11
CC[C@H](C)C(=O)O[C@H]1C[C@@H](C)C=C2C=C[C@H](C)[C@H](CC[C@@H]3C[C@@H](O)CC(=O)O3)[C@H]21 [Lovastatin]	0.986 ± 0.2	0.874 ± 0.24	1.03 ± 0.12	1.09 ± 0.05	0.99 ± 0.042	0.965 ± 0.083	–	0.788 ± 0.17	0.964 ± 0.05	0.827 ± 0.22	0.964 ± 0.14	1.09 ± 0.6	1.19 ± 0.15	1.11 ± 0.1	1.13 ± 0.1	1.26 ± 0.09	0.67 ± 0.12
N[C@@H](Cc1cc(I)c(Oc2ccc(O)c(I)c2)c(I)c1)C(=O)O [3,5,3'-Triiodothyronine]	1.09 ± 0.092	1.11 ± 0.16	1.07 ± 0.25	1.3 ± 0.41	1.32 ± 0.17	1.39 ± 0.33	0.94 ± 0.079	0.872 ± 0.26	0.907 ± 0.059	–	1.24 ± 0.6	1.3 ± 0.12	1.65 ± 0.3	1.06 ± 0.32	1.14 ± 0.21	1.15 ± 0.35	–
OC(CCN1CCCCC1)(c1ccccc1)C1CCCCC1 (stereo unspecified) [Trihexyphenidyl hydrochloride]	1.14 ± 0.038	1.16 ± 0.12	1.25 ± 0.11	0.858 ± 0.087	1.31 ± 0.14	1.71 ± 0.12	0.498 ± 0.021	0.84 ± 0.25	0.823 ± 0.16	–	0.874 ± 0.07	0.553 ± 0.26	1.41 ± 0.36	1.33 ± 0.16	1.06 ± 0.16	0.621 ± 0.12	–
